# Reference: paper PMC2832016
# These are yes or no findings as the source states them, for the method shown. In cells and extracts the contact can be indirect. Binding calls can cover weak binding; strength is not graded here.
# B1: 58K/formiminotransferase cyclodeaminase (FTCD) (protein, UniProt O88618 1-541)
# chain: MSQLVECVPNFSEGNNQEVIDAISQAISQTPGCVLLDVDAGPSTNRTVYTFVGQPECVVEGALSAARTASQLIDMRKHKGEHPRMGALDVCPFIPVRGVSMDECVLCAKAFGQRLAEELNVPVYLYGEAAQMPSRQTLPAIRAGEYEALPEKLKQAEWVPDFGPSSFVPSWGATVTGARKFLIAFNINLLSTKEQAHRIALNLREQGRGKDQPGRLKKVQGIGWYLEEKNLAQVSTNLLDFEVTALHTVYEEARREAQELNLPVVGSQLVGLVPLKALLDAAAFYCDKEKLFVLEEEHRIRLVVNRLGLDSLAPFDPKERIIEYLVPDSGPEQSLLDASLRAFVREVGARSAAPGGGSVAAAVAALGAALASMVGQMTYGRRQFDHLDSTMRRLIPPFHAASAQLTSLVDADARAFAACLGAIKLPKNTPEERDRRTCALQEGLRQAVAVPLKLAETVSQLWPALQELAQCGNLSCLSDLQVAAKALETGVFGAYFNVLINLKDMTDDVFKEKTRHRISSLLQEAKTQAALVLGSLEARKE
# Columns and labels:
# [1] = target: GST-Scyl1Δ10 (full-length Scyl1 lacking the last 10 amino acids); experiment: pull-down; GST-Scyl1 fusion proteins pre-coupled to glutathione-Sepharose beads, incubated 3 h at 4°C with 1 ml rat liver extract (1 mg/ml; 10 mM HEPES pH 7.4, 1% Triton X-100, 50 mM NaCl); washed 3 times; Western blot; only the target purified
# [2] = target: GST-tagged isolated C-terminal region of Scyl1; experiment: as above
binder,measurement,setting,value
B1,binding,[1],binds
same,binding,[2],binds
